We go through two substances from patent US20200155555A1 (Endocyte, Inc., priority 2007, published 2020).

The data set is described as follows: general procedure: Fmoc solid-phase peptide synthesis; H-Cys(4-methoxytrityl)-2-chlorotrityl-Resin (loading 0.56 mmol/g); Fmoc-AA-Wang resin; PyBOP, DIPEA.
Where [1] appears, read: whole synthesis, scale 0.1 mmol.

Strings that start with PEPTIDE1 are HELM notation: dots part the residues, brackets hold end groups and non-standard residues.

Take “PEPTIDE1{[Pte].[gGlu].[SacGlu].E.[SacGlu].E.[SacGlu].C}|CHEM1{[EverolimusOCO2EtS]}$PEPTIDE1,CHEM1,8:R3-1:R1$$$V2.0”: the conjugation yield (conjugation step, over 2 steps from everolimus) came out at 50% yield. As to “Tetra-Saccharoglutamate-Bis-tGlu-Folate Spacer EC0491”, under setting [1], the isolated mass entry is on record as “˜100 mg” and the isolated yield came to 51%.
